{
  "source": "PubChem BioAssay AID2417",
  "about": "(National Center for Advancing Translational Sciences (NCATS), 2010)",
  "note": "Among all 140,000 compounds or so, about 4,300 (3.1%) were called active. This list was built around the results that the source calls inconclusive (neither active nor inactive); the mix of calls is not that of the screen.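 The calls were made as follows: active = readout at or below -70, meaning at least 70% loss of cells showing the perinucleolar compartment, a nuclear body marking cancer cells; inconclusive = readout between -30 and a set limit; inactive = the rest.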",
  "data": [
    {"assay": "High Content Assay for Compounds that inhibit the Assembly of the Perinucleolar Compartment;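 also: plate controls were DMSO wells for no effect and camptothecin positive control wells for full effect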", "conditions": "PC3M PTB-GFP, PNC prevalence imaging, 16 h; at 10 µM; active compounds read low", "method_in_brief": "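PC3M cells stably expressing PTB-GFP, 750–1000 cells/well, treated 16 h at 37 °C with compound (23 nl of library stock), in duplicate. After paraformaldehyde fixation and Hoechst stain, imaged at 20x; PNC prevalence scored by image analysis.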", "values": [
      {"smiles": "O=Cc1c(Sc2ccccc2)nc2ccccn2c1=O", "activity change (PNC), negative = inhibition": "inconclusive: -31.6%"},
      {"smiles": "CCCCN(C)C(=O)C1CCN(C/C(C)=C/c2ccccc2)CC1", "activity change (PNC), negative = inhibition": "inactive: 14.9%"},
      {"smiles": "CCn1c(=O)cc(C(=O)OC)sc1=Nc1ccc(F)c(F)c1", "activity change (PNC), negative = inhibition": "inactive: 38.3%"},
      {"smiles": "N#CC(C(=O)NCCc1ccccc1)c1nc2ccccc2nc1N1CCOCC1", "note": "(stereo unspecified)", "activity change (PNC), negative = inhibition": "inconclusive: -33.2%"},
      {"smiles": "CCOc1cc(C(=S)N2CCN(C)CC2)ccc1OCC(=O)N1CCOCC1", "activity change (PNC), negative = inhibition": "inconclusive: -77.9%"},
      {"smiles": "CCCCCCc1nc2ccccc2c(=O)n1NC(=O)c1c(O)c2cccc3c2n(c1=O)CCC3", "activity change (PNC), negative = inhibition": "inconclusive: -56.5%"},
      {"smiles": "C=CCOC(=O)C1C(=O)CC(C)(O)C(C(=O)OCC=C)C1c1ccc(OCC)cc1", "note": "(stereo unspecified)", "activity change (PNC), negative = inhibition": "inconclusive: -47.1%"},
      {"smiles": "Cc1ccc(-n2c(=O)c3sccc3n(Cc3cc(=O)n4cc(Cl)ccc4n3)c2=O)cc1F", "activity change (PNC), negative = inhibition": "active: -82.9%"},
      {"smiles": "O=C(CN1CCOc2ccccc21)NCc1ccco1", "activity change (PNC), negative = inhibition": "active: -106%"},
      {"smiles": "CN(C)CCNC(=S)Nc1ccc(Cl)cc1", "activity change (PNC), negative = inhibition": "inconclusive: -42.8%"},
      {"smiles": "CCOC(=O)c1c(NC(=O)CSc2nnnn2C)sc(CC)c1C", "activity change (PNC), negative = inhibition": "inconclusive: -71.8%"},
      {"smiles": "CCCCNC(=O)C(=O)N/N=C/c1ccc(OCC(=O)Nc2cccc(OC)c2)c(OC)c1", "activity change (PNC), negative = inhibition": "inconclusive: -50.7%"},
      {"smiles": "COC(=O)CSc1nc2c(c(-c3ccc(C)o3)c1C#N)CCCC2", "activity change (PNC), negative = inhibition": "inactive: 7.69%"},
      {"smiles": "Cc1ccc(/C=N/Nc2nc(Cl)c(Cl)cc2Cl)s1", "activity change (PNC), negative = inhibition": "inconclusive: -44.1%"},
      {"smiles": "CC1CCCCC1NC(=O)C1CCN(C(=O)NC2CCCCC2)CC1", "note": "(stereo unspecified)", "activity change (PNC), negative = inhibition": "inconclusive: -44.2%"},
      {"smiles": "O=C(N1CCN(c2ccccn2)CC1)C(Cl)(Cl)Cl", "activity change (PNC), negative = inhibition": "inconclusive: -32.9%"},
      {"smiles": "Cn1nc(C(=O)NC(C)(C)C)c2ccccc21", "activity change (PNC), negative = inhibition": "inconclusive: -37.1%"},
      {"smiles": "O=C(Nc1ccc2nn(-c3ccccc3)nc2c1)c1ccco1", "activity change (PNC), negative = inhibition": "active: -100%"},
      {"smiles": "Cc1ccc(S(=O)(=O)N2CCC(=O)N(CCOCc3cccc(C(F)(F)F)c3)CC2)cc1", "activity change (PNC), negative = inhibition": "active: -81.3%"},
      {"smiles": "O=C1CCC(=O)N1c1ccccc1-c1ccccc1", "activity change (PNC), negative = inhibition": "inconclusive: -50.2%"},
      {"smiles": "Cc1nc(Cl)c2oc3ccccc3c2n1", "activity change (PNC), negative = inhibition": "inconclusive: -62.1%"},
      {"smiles": "COc1ccccc1-c1nnc(SCC(=O)NC2CCS(=O)(=O)C2)n1CCc1ccccc1", "note": "(stereo unspecified)", "activity change (PNC), negative = inhibition": "inactive: 35%"},
      {"smiles": "COc1cc2c(cc1NC(=O)CSc1nnc(Cc3cccs3)n1C)oc1ccccc12", "activity change (PNC), negative = inhibition": "inconclusive: -58.5%"},
      {"smiles": "O=C(c1cc2ccccc2c(=O)o1)N1CCc2ccccc2C1", "activity change (PNC), negative = inhibition": "inconclusive: -42.9%"},
      {"smiles": "C/C(CC(=O)Nc1ccc(N(C)C)cc1)=N\\NC(=O)c1ccccn1", "activity change (PNC), negative = inhibition": "inconclusive: -38.7%"},
      {"smiles": "COc1cc(/C=N/NC(=O)c2cc3ccccc3cc2O)ccc1OCCN1CCCCC1", "activity change (PNC), negative = inhibition": "inactive: -11.1%"},
      {"smiles": "O=C1NC(c2ccc3c(c2)OCO3)Nc2ccccc21", "note": "(stereo unspecified)", "activity change (PNC), negative = inhibition": "inconclusive: -43.2%"},
      {"smiles": "Cc1nc2ccccc2c(=O)[nH]1", "activity change (PNC), negative = inhibition": "inactive: 18.6%"},
      {"smiles": "CCN1CCCC1CNCc1cc(OC)c(OC)c(OC)c1", "note": "(stereo unspecified)", "activity change (PNC), negative = inhibition": "inconclusive: -44.3%"},
      {"smiles": "O=C(COc1ccccc1)NCc1ccccc1", "activity change (PNC), negative = inhibition": "inactive: -26.3%"},
      {"smiles": "CCOC(=O)C1=C(C)NC(=O)NC1c1cc(C)sc1C", "note": "(stereo unspecified)", "activity change (PNC), negative = inhibition": "inconclusive: -63.2%"},
      {"smiles": "C1=C(CCNC2=NCCCCC2)CCCC1", "activity change (PNC), negative = inhibition": "inactive: -24.7%"},
      {"smiles": "Cc1ccccc1OCC(=O)Nc1ccccc1N1CCOCC1", "activity change (PNC), negative = inhibition": "inconclusive: -74.4%"},
      {"smiles": "Nc1cccc(C(=O)OCC(=O)c2ccccc2)c1", "activity change (PNC), negative = inhibition": "inconclusive: -73%"},
      {"smiles": "COC(=O)CNS(=O)(=O)c1ccc(C)cc1", "activity change (PNC), negative = inhibition": "inconclusive: -68.3%"},
      {"smiles": "O=C(NCC(=O)N(Cc1ccccc1)C(C(=O)NC1CCCC1)c1cccnc1)c1ccco1", "note": "(stereo unspecified)", "activity change (PNC), negative = inhibition": "inconclusive: -45.9%"},
      {"smiles": "COc1cc(NC(=O)c2ccc(C)cc2)c(OC)cc1NC(=O)CN1CCCCC1", "activity change (PNC), negative = inhibition": "inconclusive: -38.5%"},
      {"smiles": "COC(=O)c1cc(Br)c(=O)n(Cc2ccncc2)c1", "activity change (PNC), negative = inhibition": "inconclusive: -46.2%"},
      {"smiles": "CC(C)[C@@H]1NC(=O)c2cc([N+](=O)[O-])cc(I)c2OCC[C@@H](C(N)=O)NC(=O)[C@H](CCC(=O)O)NC1=O", "activity change (PNC), negative = inhibition": "inconclusive: -47.6%"},
      {"smiles": "CN1CCN(C(c2cccc(C(F)(F)F)c2)c2nnnn2C(C)(C)C)CC1", "note": "(stereo unspecified)", "activity change (PNC), negative = inhibition": "inconclusive: -69.4%"},
      {"smiles": "CCn1cc(C(=O)Nc2ccc(C)c([N+](=O)[O-])c2)cn1", "activity change (PNC), negative = inhibition": "active: -86.6%"},
      {"smiles": "Cc1ccc(NC(=O)c2ccc(-c3nn(C)c(=O)c4ccccc34)cc2)c(C)c1", "activity change (PNC), negative = inhibition": "inactive: 19.8%"},
      {"smiles": "Cc1nn(-c2ccccc2)c(C)c1C(=O)OC/C(O)=C(\\C#N)c1nc2ccccc2[nH]1", "activity change (PNC), negative = inhibition": "inactive: -21.4%"},
      {"smiles": "CCC(=O)Nc1ccccc1Sc1ncnc2scc(-c3ccccc3)c12", "activity change (PNC), negative = inhibition": "inactive: 5.86%"},
      {"smiles": "Nc1cc2nsnc2cc1Br", "activity change (PNC), negative = inhibition": "inactive: 34.5%"},
      {"smiles": "O=C(Nc1ccccn1)C1(c2ccccc2)CCCC1", "activity change (PNC), negative = inhibition": "inconclusive: -53.4%"}
    ]}
  ]
}
